Article PMC9912985
These are yes or no findings as the source states them, for the method shown. For some assays here: In cells and extracts the contact can be indirect. Some results given as binding are weak or reduced against the parent protein; the word gives no strength. For some assays here: Tags and fused reporters may be left off the sequences shown.

Chains of the proteins cited; added tags and fusions are not shown.
UniProt P31414: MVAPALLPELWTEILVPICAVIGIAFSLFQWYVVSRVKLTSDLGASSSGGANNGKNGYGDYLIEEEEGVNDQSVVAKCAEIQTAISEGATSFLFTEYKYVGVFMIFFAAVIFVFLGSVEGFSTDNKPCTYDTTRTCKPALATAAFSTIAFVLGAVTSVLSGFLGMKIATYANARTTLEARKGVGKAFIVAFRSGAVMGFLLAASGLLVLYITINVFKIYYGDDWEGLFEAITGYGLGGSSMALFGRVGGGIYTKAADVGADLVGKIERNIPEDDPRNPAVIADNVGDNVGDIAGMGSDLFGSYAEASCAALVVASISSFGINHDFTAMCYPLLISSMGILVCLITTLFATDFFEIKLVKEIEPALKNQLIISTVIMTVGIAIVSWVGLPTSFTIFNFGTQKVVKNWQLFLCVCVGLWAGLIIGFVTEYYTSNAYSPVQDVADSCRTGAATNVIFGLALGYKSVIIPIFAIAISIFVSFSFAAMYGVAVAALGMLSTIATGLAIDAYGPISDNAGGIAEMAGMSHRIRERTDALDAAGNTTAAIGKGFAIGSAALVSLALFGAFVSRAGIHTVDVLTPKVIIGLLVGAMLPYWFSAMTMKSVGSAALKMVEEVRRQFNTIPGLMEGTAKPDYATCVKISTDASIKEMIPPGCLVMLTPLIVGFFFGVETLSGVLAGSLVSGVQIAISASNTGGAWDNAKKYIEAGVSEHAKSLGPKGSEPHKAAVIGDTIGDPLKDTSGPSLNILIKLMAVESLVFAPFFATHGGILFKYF

Columns and labels:
[1] = target: Arabidopsis thaliana H+-pyrophosphatase AtAVP1, bait in pBT3-STE (Arabidopsis thaliana) (UniProt P31414); assay: two-hybrid; split-ubiquitin system: bait pBT3-STE : AtAVP1 and prey pPR3N:AtRLK co-transformed into NMY51 yeast; growth on SD/-Leu-Trp-His-Ade, 30 °C, 3-4 d, dilutions 1x to 1000x
[2] = target: nLUC-AtAVP1 (Arabidopsis thaliana) (UniProt P31414); assay: split reporter; luciferase complementary imaging (LCI): nLUC-AtAVP1 and cLUC-AtRLK co-infiltrated by Agrobacterium into tobacco leaves, luminescence read after 48 h

binding [1] | binding [2] | Binder
binds |  | Arabidopsis thaliana receptor-like protein kinase AtRLK, prey in pPR3N (receptor, UniProt O65238 27-872) IEFVYPNFTASNLRFVDSSKGAFLLSRNSIFKAGLFSPGGDDSSTGFYFSVVHVDSGSTIWSSNRDSPVSSSGTMNLTPQGISVIEDGKSQIPVWSTPVLASPVKSLRLTDAGNLLLLDHLNVSLWESFDFPTDSIVLGQRLKLGMFLSGSVSRSDFSTGDYKFLVGESDGLMQWRGQNYWKLRMHIRANVDSNFPVEYLTVTTSGLALMARNGTVVVVRVALPPSSDFRVAKMDSSGKFIVSRFSGKNLVTEFSGPMDSCQIPFVCGKLGLCNLDNASENQSCSCPDEMRMDAGKGVCVPVSQSLSLPVSCEARNISYLELGLGVSYFSTHFTDPVEHGLPLLACHDICSKNCSCLGVFYENTSRSCYLVKDSFGSLSLVKNSPENHDLIGYVKLSIRKTNAQPPGNNNRGGSSFPVIALVLLPCSGFFLLIALGLLWWRRCAVMRYSSIREKQVTRPGSFESGDLGSFHIPGLPQKFEFEELEQATENFKMQIGSGGFGSVYKGTLPDETLIAVKKITNHGLHGRQEFCTEIAIIGNIRHTNLVKLRGFCARGRQLLLVYEYMNHGSLEKTLFSGNGPVLEWQERFDIALGTARGLAYLHSGCDQKIIHCDVKPENILLHDHFQPKISDFGLSKLLNQEESSLFTTMRGTRGYLAPEWITNAAISEKADVYSYGMVLLELVSGRKNCSFRSRSNSVTEDNNQNHSSTTTTSTGLVYFPLYALDMHEQGRYMELADPRLEGRVTSQEAEKLVRIALCCVHEEPALRPTMAAVVGMFEGSIPLGNPRMESLNFLRFYGLRFAESSMVEGQNGESETMVFHRRESSNSGGSRQSASYIASQEVSGPR
 | binds | cLUC-AtRLK (receptor, UniProt O65238 27-872) IEFVYPNFTASNLRFVDSSKGAFLLSRNSIFKAGLFSPGGDDSSTGFYFSVVHVDSGSTIWSSNRDSPVSSSGTMNLTPQGISVIEDGKSQIPVWSTPVLASPVKSLRLTDAGNLLLLDHLNVSLWESFDFPTDSIVLGQRLKLGMFLSGSVSRSDFSTGDYKFLVGESDGLMQWRGQNYWKLRMHIRANVDSNFPVEYLTVTTSGLALMARNGTVVVVRVALPPSSDFRVAKMDSSGKFIVSRFSGKNLVTEFSGPMDSCQIPFVCGKLGLCNLDNASENQSCSCPDEMRMDAGKGVCVPVSQSLSLPVSCEARNISYLELGLGVSYFSTHFTDPVEHGLPLLACHDICSKNCSCLGVFYENTSRSCYLVKDSFGSLSLVKNSPENHDLIGYVKLSIRKTNAQPPGNNNRGGSSFPVIALVLLPCSGFFLLIALGLLWWRRCAVMRYSSIREKQVTRPGSFESGDLGSFHIPGLPQKFEFEELEQATENFKMQIGSGGFGSVYKGTLPDETLIAVKKITNHGLHGRQEFCTEIAIIGNIRHTNLVKLRGFCARGRQLLLVYEYMNHGSLEKTLFSGNGPVLEWQERFDIALGTARGLAYLHSGCDQKIIHCDVKPENILLHDHFQPKISDFGLSKLLNQEESSLFTTMRGTRGYLAPEWITNAAISEKADVYSYGMVLLELVSGRKNCSFRSRSNSVTEDNNQNHSSTTTTSTGLVYFPLYALDMHEQGRYMELADPRLEGRVTSQEAEKLVRIALCCVHEEPALRPTMAAVVGMFEGSIPLGNPRMESLNFLRFYGLRFAESSMVEGQNGESETMVFHRRESSNSGGSRQSASYIASQEVSGPR
